Assay results reported in patent publication US20220033448A1, “METHODS FOR AGGREGATION OF PROTEINS” (priority 2011, published 2022).
Not every detail of the peptide structures is certain; ends, links or a residue may be inferred. No end group written: not given here.

Legend:
[1] = test system: S. epidermidis strain ATCC 12228 and S. aureus ATCC; type: cell-based, Staphylococcus; details: at its MIC value; after 5 min
Protocol: Time-kill curves were obtained to study the kinetics of bactericidal activity. Compounds C30, Hit50 and C29 (for sequences see above) were tested against S. epidermidis strain ATCC 12228 and S. aureus ATCC at the compound's MIC and two times MIC value. It was shown that compound C30 decreased the viable counts by 100% within 5 min, while Hit50 reduced the viable counts by ^˜3 log units after the same incubation period, both at a concentration that equaled its MIC value (see FIG. 11A and FIG. 11B). […] For example the time needed to decrease the number of CFU/ml one-fold for C29 was 60 minutes (at the minimum inhibitory concentration), and only 10 minutes for 2×MIC.

[2] = test system: S. aureus; type: cell-based, Staphylococcus aureus; details: S. aureus ATCC; broth microdilution, 4 duplicates

| Sequence | reduction of viable counts [1] [log units] | onset of resistance compared with common antibiotics [2] |
| --- | --- | --- |
| RFFIALSRRGSRVQAYLYRR [Hit50] | ~3 |  |
| RLFNFLKRGSRLFNFLKR [C29/Hit11] |  | much slower onset of resistance than Ampicillin |
